These are yes or no findings as the source states them, for the method shown. In cells and extracts the contact can be indirect. Some binding calls cover weakened binding; strength is not graded here. For part of these data: Tags and fused reporters may be left off the sequences shown.
T1: GST-Rb N-terminal (1-373 a.a.) (UniProt P06400)
T1 sequence: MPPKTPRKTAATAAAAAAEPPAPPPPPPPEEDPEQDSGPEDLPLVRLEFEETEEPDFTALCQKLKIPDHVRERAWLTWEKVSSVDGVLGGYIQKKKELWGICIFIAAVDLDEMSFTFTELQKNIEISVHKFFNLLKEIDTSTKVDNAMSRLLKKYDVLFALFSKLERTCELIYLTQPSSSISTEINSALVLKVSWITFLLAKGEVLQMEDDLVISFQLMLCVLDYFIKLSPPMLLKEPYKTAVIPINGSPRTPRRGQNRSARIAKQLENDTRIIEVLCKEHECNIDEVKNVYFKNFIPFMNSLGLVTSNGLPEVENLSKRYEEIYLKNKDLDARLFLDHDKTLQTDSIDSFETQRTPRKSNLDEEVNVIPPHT

Amino acid sequences for entries named in this document (tags omitted). A change or cut given only in a name is not applied to a line headed by its entry.
UniProt P03372: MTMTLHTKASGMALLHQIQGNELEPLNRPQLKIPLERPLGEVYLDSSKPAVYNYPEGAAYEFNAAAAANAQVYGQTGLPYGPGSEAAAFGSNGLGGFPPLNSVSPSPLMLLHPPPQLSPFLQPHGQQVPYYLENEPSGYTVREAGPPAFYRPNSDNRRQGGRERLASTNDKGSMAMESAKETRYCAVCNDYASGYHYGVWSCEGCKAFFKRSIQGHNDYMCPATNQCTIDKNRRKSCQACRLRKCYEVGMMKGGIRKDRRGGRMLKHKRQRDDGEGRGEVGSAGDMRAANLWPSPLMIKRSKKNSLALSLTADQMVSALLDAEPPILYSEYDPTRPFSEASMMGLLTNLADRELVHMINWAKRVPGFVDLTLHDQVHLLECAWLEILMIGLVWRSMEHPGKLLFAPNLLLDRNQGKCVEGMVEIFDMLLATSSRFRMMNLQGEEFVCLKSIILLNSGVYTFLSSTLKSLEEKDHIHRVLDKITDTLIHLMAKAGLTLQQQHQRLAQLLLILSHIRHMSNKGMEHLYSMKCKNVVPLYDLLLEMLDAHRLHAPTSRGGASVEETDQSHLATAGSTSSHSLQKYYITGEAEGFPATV


How the values were obtained:
[1] = target: T1, GST-Rb N-terminal (1-373 a.a.); test: pull-down; GST pull down with GST-pRb N-terminal, Pocket and C-terminal domains; ESR1 AB, CD and EF domains in MCF7 cells; only the target purified
[2] = target: Estrogen receptor alpha (ESR1) (human (endogenous in MCF7)) (UniProt P03372); test: co-IP; endogenous proteins of MCF7 lysate (20 mM Tris HCl pH 8, 137 mM NaCl, 10% glycerol, 1% NP40, 2 mM EDTA); 3 mg protein immunoprecipitated with 4 ug ERα antibody or mouse IgG overnight at 4°C, protein A/G beads; western blot; for the chaperones cells untreated or treated with MG132 for 4 hours, scrambled or RB1 kd1

binding [1] | binding [2] | Molecule
binds |  | ERα His-CD (CD domain of ESR1) (from UniProt P03372 179-303) (domain or fragment)
 | binds | Retinoblastoma protein (pRb) (protein, UniProt P06400 1-928) MPPKTPRKTAATAAAAAAEPPAPPPPPPPEEDPEQDSGPEDLPLVRLEFEETEEPDFTALCQKLKIPDHVRERAWLTWEKVSSVDGVLGGYIQKKKELWGICIFIAAVDLDEMSFTFTELQKNIEISVHKFFNLLKEIDTSTKVDNAMSRLLKKYDVLFALFSKLERTCELIYLTQPSSSISTEINSALVLKVSWITFLLAKGEVLQMEDDLVISFQLMLCVLDYFIKLSPPMLLKEPYKTAVIPINGSPRTPRRGQNRSARIAKQLENDTRIIEVLCKEHECNIDEVKNVYFKNFIPFMNSLGLVTSNGLPEVENLSKRYEEIYLKNKDLDARLFLDHDKTLQTDSIDSFETQRTPRKSNLDEEVNVIPPHTPVRTVMNTIQQLMMILNSASDQPSENLISYFNNCTVNPKESILKRVKDIGYIFKEKFAKAVGQGCVEIGSQRYKLGVRLYYRVMESMLKSEEERLSIQNFSKLLNDNIFHMSLLACALEVVMATYSRSTSQNLDSGTDLSFPWILNVLNLKAFDFYKVIESFIKAEGNLTREMIKHLERCEHRIMESLAWLSDSPLFDLIKQSKDREGPTDHLESACPLNLPLQNNHTAADMYLSPVRSPKKKGSTTRVNSTANAETQATSAFQTQKPLKSTSLSLFYKKVYRLAYLRLNTLCERLLSEHPELEHIIWTLFQHTLQNEYELMRDRHLDQIMMCSMYGICKVKNIDLKFKIIVTAYKDLPHAVQETFKRVLIKEEEYDSIIVFYNSVFMQRLKTNILQYASTRPPTLSPIPHIPRSPYKFPSSPLRIPGGNIYISPLKSPYKISEGLPTPTKMTPRSRILVSIGESFGTSEKFQKINQMVCNSDRVLKRSAEGSNPPKPLKKLRFDIEGSDEADGSKHLPGESKFQQKLAEMTSTRTRMQKQKMNDSMDTSNKEEK
 | binds | p23 (protein, UniProt Q15185 1-160) MQPASAKWYDRRDYVFIEFCVEDSKDVNVNFEKSKLTFSCLGGSDNFKHLNEIDLFHCIDPNDSKHKRTDRSILCCLRKGESGQSWPRLTKERAKLNWLSVDFNNWKDWEDDSDEDMSNFDRFSEMMNNMGGDEDVDLPEVDGADDDSQDSDDEKMPDLE

Reference: paper PMC3757244
